According to PubChem BioAssay AID504834 (National Center for Advancing Translational Sciences (NCATS), 2011):
Out of some 320,000 compounds screened, about 22,000 (6.9%) were called active. The shares of active, inactive and inconclusive entries below differ from those in the screen. Calls come from the whole dose curve; as a rule, active = well fitted inhibition curve with a large enough effect; inconclusive = small, poorly fitted or top-dose-only effect, or another doubt; inactive = no such curve, though single readings can be large or run the other way. Potencies beside an inconclusive call are fits to weak or partial responses and may not hold up.

assay: Primary qHTS for delayed death inhibitors of the malarial parasite plastid, 96 hour incubation; settings: P. falciparum luciferase reporter growth; series mostly up to 28.7 µM
Procedure, shortened: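 Two-generation exposure (96 h) targets delayed-death phenotype. Reporter parasites carrying integrated firefly luciferase, in red cells at 2% hematocrit and 0.05% parasitemia final, kept at 37 C, 5% CO2; luminescence loss indicates inhibition.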
Potency is the fitted concentration of half-maximal effect.

Row | Structure (SMILES) | Potency
1 | Clc1ccc(-n2cc(COCc3ccccc3)nn2)cc1 | inactive
2 | COc1cc(CNc2ccc3[nH]c(=O)[nH]c3c2)ccc1OCc1ccccc1 | inconclusive: 18.5 µM [inhibitor, single point]
3 | CN(C)c1ccc(/C=C/c2cc[n+]([O-])cc2)cc1 | active: 2.08 µM
4 | O=C(NCc1ccccn1)C1CCN(S(=O)(=O)c2ccc(Br)cc2)CC1 | inactive
5 | COc1ccc(NC(=O)c2ccc(-c3ccc(OC)cc3)s2)cc1 | inconclusive: 2.08 µM [inhibitor, single point]
6 | CN(C)c1cccc2c1c(NC(=O)c1ccc(F)cc1)nn2C | inactive
7 | CCOC(=O)c1sc(NC(=O)c2cc3n(n2)C(C(F)(F)F)CC(c2cccs2)N3)c(C(=O)OCC)c1C (stereo not given) | inconclusive: 4.65 µM [inhibitor, partial curve, poor fit]
8 | CCOc1ccc(NC(=O)CN2C(=O)CSC2=O)cc1 | inconclusive: 18.5 µM [inhibitor, single point]
9 | CCN(C(=O)c1cc2c(=O)n3ccccc3nc2s1)C1CCCCC1 | inactive
10 | CC(=O)Nc1ccc(S(=O)(=O)NCCSCc2ccc(Cl)cc2Cl)cc1 | inconclusive: 18.5 µM [inhibitor, partial curve, poor fit]
11 | CCOc1ccc(-c2nnn(CCC#N)n2)cc1OC | inactive
12 | Cc1ccc(CSCCC(=O)NCCc2ccc(Cl)cc2)cc1 | inconclusive: 10.4 µM [inhibitor, single point]
13 | Cc1cccc(OCc2nc(C#N)c(N3CC(C)CC(C)C3)o2)c1 (stereo not given) | active: 13.1 µM
14 | O=C(O)c1cccnc1Nc1ccc(Cl)cc1 | inconclusive: 10.4 µM [inhibitor, partial curve]
15 | CC(=O)Cc1nsc(NC(=O)c2ccc(-c3ccc(Cl)c(Cl)c3)o2)n1 | inconclusive: 18.5 µM [inhibitor, single point]
16 | Cc1ccc(S(=O)(=O)NC(=O)NN2CCCCCC2)cc1 | inconclusive: 16.9 µM [inhibitor, single point]
17 | O=C(CN1CCC(n2nnc3cc(C(F)(F)F)ccc32)CC1)Nc1ccc2c(c1)CCC2 | inconclusive: 0.657 µM [inhibitor, full curve, poor fit]
18 | COc1ccccc1N1CCN(C2CCCN(C(=O)c3ccccn3)C2)CC1 (stereo not given) | inconclusive: 16.5 µM [inhibitor, single point]
19 | O=C1CCc2cc(S(=O)(=O)NCCC(=O)N3CCN(c4cccc(Cl)c4)CC3)ccc2N1 | active: 10.4 µM
20 | COc1ccccc1C1/C(=C(/O)c2ccc(OC(C)C)cc2)C(=O)C(=O)N1c1cc(C)on1 (stereo not given) | inconclusive: 1.04 µM [inhibitor, partial curve, poor fit]
21 | COc1cccc(C(Nc2ccccn2)c2c(NC(=O)c3ccco3)sc(C)c2C)c1 (stereo not given) | inconclusive: 10.4 µM [inhibitor, single point]
22 | CCc1ccc(C2NC(c3ccc(CC)cc3)C([N+](=O)[O-])C(C)(C)C2[N+](=O)[O-])cc1 (stereo not given) | active: 13.1 µM
23 | CSc1ncccc1C(=O)OCC(=O)NCc1ccccc1 | inconclusive: 11.7 µM [inhibitor, partial curve, poor fit]

Row | Structure (SMILES) | Potency
24 | CCOC(=O)COc1cc(Br)c(C2NC(=O)NC(C)=C2C(C)=O)cc1OCC (stereo not given) | active: 9.28 µM
25 | O=C(CSc1nnc2c(n1)[nH]c1ccc(F)cc12)Nc1ccccc1F | inactive
26 | O=C(CN1CCN(S(=O)(=O)c2ccc(Br)cc2)CC1)Nc1ccc2c(c1)OCCO2 | inconclusive: 1.04 µM [inhibitor, partial curve, poor fit]
27 | Cc1ccc(C)c(S(=O)(=O)NCc2ccc(C(=O)N3CC(C)OC(C)C3)cc2)c1 (stereo not given) | inconclusive: 18.5 µM [inhibitor, single point]
28 | C=C(C)C(=O)Nc1cccc(C2=NOC3(C2)C[C@@H](C(N)=O)N(C(=O)[C@H]2CCC(=O)N2)C3)c1 (stereo not given in full) | inactive
29 | COCCNC(=S)N(CCc1c(C)[nH]c2ccc(C)cc12)Cc1ccco1 | inconclusive: 11.7 µM [inhibitor, single point]
30 | CCCCn1c(N)c(N(CC(C)C)C(=O)CC2CCCC2)c(=O)[nH]c1=O | inactive
31 | Cc1sc2ccccc2[n+]1CC(=O)O | inconclusive: 4.15 µM [inhibitor, partial curve, poor fit]
32 | COc1ccc(Nc2c(-c3ccc(C)cc3)nc3cnccn23)cc1 | inactive
33 | COc1ccc(S(=O)(=O)N2CCN(c3ccc(F)cc3)CC2)cc1OC | inactive
34 | COc1cccc(NC(=O)Cn2c(CCC(=O)O)ccc2-c2ccc(C)cc2)c1 | inconclusive: 5.22 µM [inhibitor, partial curve, poor fit]
35 | Brc1ccc(-c2nc(N/N=C/c3cccnc3)c3ccccc3n2)cc1 | inconclusive: 10.4 µM [inhibitor, single point]
36 | CCOC(=O)c1cnc(SC)nc1Oc1cccc(NS(=O)(=O)c2ccccc2)c1 | inconclusive: 0.0828 µM [inhibitor, full curve, poor fit]
37 | N#Cc1cnn(-c2cccc(Cl)c2)c1N | inconclusive: 1.04 µM [inhibitor, partial curve, poor fit]
38 | O=C(CCCC(=O)N1CCc2ccccc21)N1CCc2ccccc21 | inactive
39 | COc1cc(CN2CCCC(N3CCN(c4ccccc4C)CC3)C2)cc(Cl)c1O (stereo not given) | inconclusive: 10.4 µM [inhibitor, partial curve, poor fit]
40 | Cc1ccc(N2CC(C(=O)OCC(=O)c3ccc(F)cc3)CC2=O)cc1 (stereo not given) | active: 2.94 µM
41 | CCOC(=O)c1cnc(SCc2ccc(C)cc2)nc1N | active: 0.0522 µM
42 | CN(C(=O)CN(C)S(=O)(=O)c1ccc(F)cc1)c1c(N)n(Cc2ccccc2)c(=O)[nH]c1=O | inactive
43 | Cc1c(NC(=S)NC(=O)CC(C)C)c(=O)n(-c2ccccc2)n1C | inconclusive: 20.8 µM [inhibitor, single point]
44 | Cc1ccc(Nc2nnns2)cc1 | inactive
45 | O=C(COc1ccccc1-c1ccccc1)N/N=C/c1ccncc1 | inconclusive: 0.657 µM [inhibitor, partial curve, poor fit]

A second format for some results above:
Row	Structure (SMILES)	Potency
26	O=C(CN1CCN(S(=O)(=O)c2ccc(Br)cc2)CC1)Nc1ccc2c(c1)OCCO2	inconclusive: 1.04 µM [inhibitor, partial curve, poor fit]
27	Cc1ccc(C)c(S(=O)(=O)NCc2ccc(C(=O)N3CC(C)OC(C)C3)cc2)c1 (stereo not given)	inconclusive: 18.5 µM [inhibitor, single point]
28	C=C(C)C(=O)Nc1cccc(C2=NOC3(C2)C[C@@H](C(N)=O)N(C(=O)[C@H]2CCC(=O)N2)C3)c1 (stereo not given in full)	inactive
29	COCCNC(=S)N(CCc1c(C)[nH]c2ccc(C)cc12)Cc1ccco1	inconclusive: 11.7 µM [inhibitor, single point]
30	CCCCn1c(N)c(N(CC(C)C)C(=O)CC2CCCC2)c(=O)[nH]c1=O	inactive
31	Cc1sc2ccccc2[n+]1CC(=O)O	inconclusive: 4.15 µM [inhibitor, partial curve, poor fit]
32	COc1ccc(Nc2c(-c3ccc(C)cc3)nc3cnccn23)cc1	inactive
33	COc1ccc(S(=O)(=O)N2CCN(c3ccc(F)cc3)CC2)cc1OC	inactive
34	COc1cccc(NC(=O)Cn2c(CCC(=O)O)ccc2-c2ccc(C)cc2)c1	inconclusive: 5.22 µM [inhibitor, partial curve, poor fit]
35	Brc1ccc(-c2nc(N/N=C/c3cccnc3)c3ccccc3n2)cc1	inconclusive: 10.4 µM [inhibitor, single point]
36	CCOC(=O)c1cnc(SC)nc1Oc1cccc(NS(=O)(=O)c2ccccc2)c1	inconclusive: 0.0828 µM [inhibitor, full curve, poor fit]
37	N#Cc1cnn(-c2cccc(Cl)c2)c1N	inconclusive: 1.04 µM [inhibitor, partial curve, poor fit]
